Results are given in words; binding and its absence hold for the method and conditions named. In cells and extracts the contact can be indirect. Binding calls can cover weak binding; strength is not graded here. For part of these data: Sequences can lack the tags named with a protein. One block for each molecule: values may come before it.
Tests used:
[1] = molecular target: GST-MLF (from pGEX-MLF) (Drosophila) (UniProt Q9NKV0); experiment: pull-down; GST proteins from E. coli immobilised on Glutathione-Sepharose beads; 35S-methionine-labeled in vitro translated proteins; 2h at 4°C in buffer A (20 mM Tris-HCl pH 8.0, 150 mM NaCl, 10 mM KCl, 1 mM EDTA, 0.1 mg/ml BSA, 1 mM DTT, 0.05% NP40); autoradiography; only the target purified
[2] = molecular target: T1, GFP-MLF (from pAc-MLF-EGFP) (Drosophila) (UniProt Q9NKV0); experiment: co-IP; Kc167 cells transfected with expression plasmids for GFP- and HA-tagged proteins; 1 mg of extract in IP buffer (150 mM NaCl, 0.5% NP40, 50 mM Tris-HCl pH 8.0, 1 mM EGTA); anti-GFP antibody coupled to sepharose beads, 4h at 4°C; Western blot
T1 sequence: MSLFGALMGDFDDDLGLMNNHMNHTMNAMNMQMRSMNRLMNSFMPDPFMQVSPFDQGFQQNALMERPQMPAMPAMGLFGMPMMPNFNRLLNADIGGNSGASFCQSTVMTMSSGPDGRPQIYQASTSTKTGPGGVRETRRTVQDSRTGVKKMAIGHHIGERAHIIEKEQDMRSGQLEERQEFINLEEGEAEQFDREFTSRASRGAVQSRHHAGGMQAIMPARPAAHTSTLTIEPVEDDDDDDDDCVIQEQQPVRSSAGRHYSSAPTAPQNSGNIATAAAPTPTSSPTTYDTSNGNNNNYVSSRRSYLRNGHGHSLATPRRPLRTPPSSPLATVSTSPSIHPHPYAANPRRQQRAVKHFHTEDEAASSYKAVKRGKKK

Sequences of proteins named here, by UniProt entry; tags and fusion partners are left off.
UniProt Q9W349: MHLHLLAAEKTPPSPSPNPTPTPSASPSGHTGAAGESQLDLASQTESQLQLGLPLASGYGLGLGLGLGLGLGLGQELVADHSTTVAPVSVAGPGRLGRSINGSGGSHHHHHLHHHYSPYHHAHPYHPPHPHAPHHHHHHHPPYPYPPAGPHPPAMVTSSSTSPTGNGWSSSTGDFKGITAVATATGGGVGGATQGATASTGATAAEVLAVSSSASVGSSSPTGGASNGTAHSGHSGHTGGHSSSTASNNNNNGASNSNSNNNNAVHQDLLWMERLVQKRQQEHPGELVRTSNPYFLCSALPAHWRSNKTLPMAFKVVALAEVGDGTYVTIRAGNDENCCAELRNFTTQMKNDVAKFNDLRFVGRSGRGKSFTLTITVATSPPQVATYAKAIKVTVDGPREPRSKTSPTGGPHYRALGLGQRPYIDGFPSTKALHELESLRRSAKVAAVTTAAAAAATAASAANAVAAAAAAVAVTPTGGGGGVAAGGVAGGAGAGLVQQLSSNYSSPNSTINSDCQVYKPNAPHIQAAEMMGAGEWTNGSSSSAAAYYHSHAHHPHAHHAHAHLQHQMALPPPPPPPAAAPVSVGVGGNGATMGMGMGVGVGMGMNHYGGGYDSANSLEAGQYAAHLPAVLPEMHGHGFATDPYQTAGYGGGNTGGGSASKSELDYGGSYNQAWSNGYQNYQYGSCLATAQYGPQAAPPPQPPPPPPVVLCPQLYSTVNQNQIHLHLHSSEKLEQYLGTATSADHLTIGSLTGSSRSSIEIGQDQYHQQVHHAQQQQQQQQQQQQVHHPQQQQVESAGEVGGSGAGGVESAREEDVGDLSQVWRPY

[3] = molecular target: T2, HA-MLF (96-202), from pAc-3xHA-MLF (96-202) (Drosophila) (UniProt Q9NKV0); experiment: as above
T2 sequence: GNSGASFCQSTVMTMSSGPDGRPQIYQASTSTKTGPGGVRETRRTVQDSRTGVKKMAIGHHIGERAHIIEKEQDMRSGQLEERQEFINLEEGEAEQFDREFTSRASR

[4] = molecular target: GFP-tagged Lozenge (from pAc-Lz-EGFP) (Drosophila) (UniProt Q9W349); experiment: as above
[5] = molecular target: GFP-DnaJ-1 (from pAc-DnaJ-J1-EGFP) (Drosophila); experiment: as above
[6] = molecular target: GST-DnaJ-1 (from pGEX-DnaJ-1) (Drosophila); experiment: pull-down; GST proteins from E. coli immobilised on Glutathione-Sepharose beads; 35S-methionine-labeled in vitro translated proteins; 2h at 4°C in buffer A (20 mM Tris-HCl pH 8.0, 150 mM NaCl, 10 mM KCl, 1 mM EDTA, 0.1 mg/ml BSA, 1 mM DTT, 0.05% NP40); autoradiography; only the target purified

binding [1]: binds
Molecule: in vitro translated 35S-methionine-labeled Lz (from pET-3c-Lz) (from UniProt Q9W349 1-826)

binding [2]: binds
Molecule: HA-DnaJ-1 (58-334), from pAc-3xHA-DnaJ-1 (58-334) (Drosophila) (domain or fragment)

binding [2]: binds
binding [3]: binds
Molecule: HA-DnaJ-1 (157-334), from pAc-3xHA-DnaJ-1 (157-334) (Drosophila) (domain or fragment)

binding [4]: binds
Molecule: HA-MLF (2-309), from pAc-3xHA-MLF (2-309) (from UniProt Q9NKV0-2)

binding [2]: binds
Molecule: HA-DnaJ-1 (P32S), from pAc-3xHA-DnaJ-1 (P32S) (Drosophila)

binding [2]: binds
Molecule: HA-DnaJ-1 (2-334), from pAc-3xHA-DnaJ-1 (2-334) (Drosophila)

binding [5]: binds
B1: HA-MLF (96-202), from pAc-3xHA-MLF (96-202) (domain or fragment, UniProt Q9NKV0 96-202)
chain: T2 sequence

binding [6]: binds
B2: in vitro translated 35S-methionine labeled MLF (from pBS-MLF) (protein, UniProt Q9NKV0 1-376)
chain: T1 sequence
modifications: 35S-methionine label
